Assay results taken from the supplement of paper PMC4862054.
Most values lie at the level of the controls, where differences are scatter. *1 amine or outer side, *2 acyl side, *3 side chain or, on linkers, in order; H or OH if unused. Where a SMILES comes first, the peptide text is derived from it. Bridges are numbered along the chain shown (N, C = ends). Roman numbers before positions name the chains, in order. [ ]: non-standard residue; d: D form. Actinocin(9to1) = Cc1c2oc3c(C)ccc(C(=O)[*:1])c3nc-2c(C(=O)[*:2])c(N)c1=O; NMeV = CN[C@H](C(=O)O)C(C)C; Sar = CNCC(=O)O

Tests used:
Assay in all cases: normalised response (% of control), CellTox Green; higher = less cell death (100 = DMSO, 0 = benzethonium chloride kill control)
Details in all cases: incubation time: 72 h
BT-474 = tested on: BT-474
Experimental: (§1)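 DSRT, 72 h incubation, CellTox Green / CellTiter-Glo readout. Signal is normalised to DMSO and benzethonium chloride controls. Value is the normalised response at the lowest tested concentration.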

BT-549 = tested on: BT-549
Experimental: as §1

CAL-120 = tested on: CAL-120
Experimental: as §1

CAL-148 = tested on: CAL-148
Experimental: as §1

CAL-51 = tested on: CAL-51
Experimental: as §1

CAL-85-1 = tested on: CAL-85-1
Experimental: as §1

DU-4475 = tested on: DU-4475
Experimental: as §1

HCC1599 = tested on: HCC1599
Experimental: as §1

Hs578T = tested on: Hs578T
Experimental: as §1

MCF-10A = tested on: MCF-10A
Experimental: as §1

MDA-MB-231 = tested on: MDA-MB-231
Experimental: as §1

MDA-MB-453 = tested on: MDA-MB-453
Experimental: as §1

MDA-MB-468 = tested on: MDA-MB-468
Experimental: as §1

MFM-223 = tested on: MFM-223
Experimental: as §1

HCC1143 = tested on: HCC1143
Experimental: as §1

HCC1937 = tested on: HCC1937
Experimental: as §1

HDQ-P1 = tested on: HDQ-P1
Experimental: as §1

MDA-MB-436 = tested on: MDA-MB-436
Experimental: as §1

`COc1cc2c(cc1O)CC[C@@H]1[C@@H]2CC[C@]2(C)[C@@H](O)CC[C@@H]12` [2-methoxyestradiol] (1 nM) was tested, and the normalised response (BT-474) was 100%, the normalised response (BT-549) was 90.4% and the normalised response (CAL-120) was 102%. For the same compound, the normalised response (CAL-148) was 104%, the normalised response (CAL-51) was 123% and the normalised response (CAL-85-1) was 100%. For the same compound, the normalised response (DU-4475) was 97.5%, the normalised response (HCC1599) was 89.7% and the normalised response (Hs578T) was 102%. For the same compound, the normalised response (MCF-10A) was 109%, the normalised response (MDA-MB-231) was 100% and the normalised response (MDA-MB-453) was 101%. For the same compound, the normalised response (MDA-MB-468) was 80.6% and the normalised response (MFM-223) was 91.7%.

In the case of `Cc1c2oc3c(C)ccc(C(=O)N[C@@H]4C(=O)N[C@H](C(C)C)C(=O)N5CCC[C@H]5C(=O)N(C)CC(=O)N(C)[C@@H](C(C)C)C(=O)O[C@@H]4C)c3nc-2c(C(=O)N[C@@H]2C(=O)N[C@H](C(C)C)C(=O)N3CCC[C@H]3C(=O)N(C)CC(=O)N(C)[C@@H](C(C)C)C(=O)O[C@@H]2C)c(N)c1=O` [Dactinomycin] (0.1 nM) (I: T[dV]P[Sar][NMeV] / II: T[dV]P[Sar][NMeV]; ester I:1-I:C, II:1-II:C; linker I:N-II:N via Actinocin(9to1)), the normalised response (BT-474) is reported as 98%, the normalised response (BT-549) is reported as 94.1% and the normalised response (CAL-120) is reported as 103%. The normalised response (CAL-148) was 101%, the normalised response (CAL-51) was 101% and the normalised response (CAL-85-1) was 98.6%. The normalised response (DU-4475) was 106%, the normalised response (HCC1143) was 73.1% and the normalised response (HCC1599) was 111%. For the same compound, the normalised response (HCC1937) was 79%, the normalised response (HDQ-P1) was 84.3% and the normalised response (Hs578T) was 99.5%. It also gave a normalised response (MCF-10A) of 100%, a normalised response (MDA-MB-231) of 108% and a normalised response (MDA-MB-436) of 84.4%. The normalised response (MDA-MB-453) was 106% and the normalised response (MFM-223) was 103%.

`O=C1c2c(O)ccc(O)c2C(=O)c2c(NCCNCCO)ccc(NCCNCCO)c21` [Mitoxantrone] (0.1 nM) gave a normalised response (BT-474) of 100%, a normalised response (BT-549) of 93.7% and a normalised response (CAL-120) of 104%. It also gave a normalised response (CAL-148) of 100%, a normalised response (CAL-51) of 115% and a normalised response (CAL-85-1) of 102%. The normalised response (DU-4475) was 103%, the normalised response (HCC1143) was 121% and the normalised response (HCC1599) was 112%. The normalised response (HCC1937) was 92.3%, the normalised response (HDQ-P1) was 103% and the normalised response (Hs578T) was 104%. The normalised response (MDA-MB-231) was 110%, the normalised response (MDA-MB-436) was 77.9% and the normalised response (MDA-MB-453) was 102%. The normalised response (MDA-MB-468) was 93.2% and the normalised response (MFM-223) was 104%.

`CS(=O)(=O)N1CCN(Cc2cc3nc(-c4cccc5[nH]ncc45)nc(N4CCOCC4)c3s2)CC1` [Pictilisib] (1 nM) gave a normalised response (BT-474) of 102%, a normalised response (BT-549) of 111% and a normalised response (CAL-120) of 101%. For the same compound, the normalised response (CAL-148) was 97.2%, the normalised response (CAL-51) was 118% and the normalised response (CAL-85-1) was 101%. It also gave a normalised response (DU-4475) of 100%, a normalised response (HCC1143) of 84.4% and a normalised response (HCC1599) of 86.8%. The normalised response (HDQ-P1) was 83.8%, the normalised response (Hs578T) was 103% and the normalised response (MCF-10A) was 106%. For the same compound, the normalised response (MDA-MB-453) was 113%, the normalised response (MDA-MB-468) was 107% and the normalised response (MFM-223) was 100%.

`CNC(=O)c1cc(Oc2ccc(NC(=O)Nc3ccc(Cl)c(C(F)(F)F)c3)c(F)c2)ccn1` [Regorafenib] (1 nM) showed a normalised response (BT-474) of 102%, a normalised response (BT-549) of 100% and a normalised response (CAL-120) of 101%. The normalised response (CAL-148) was 88.6%, the normalised response (CAL-51) was 121% and the normalised response (CAL-85-1) was 102%. It also gave a normalised response (DU-4475) of 94.1%, a normalised response (HCC1143) of 117% and a normalised response (HCC1599) of 102%. It also gave a normalised response (HCC1937) of 59.1%, a normalised response (HDQ-P1) of 95.1% and a normalised response (Hs578T) of 99.9%. For the same compound, the normalised response (MCF-10A) was 109%, the normalised response (MDA-MB-231) was 103% and the normalised response (MDA-MB-436) was 67.5%. It also gave a normalised response (MDA-MB-453) of 107% and a normalised response (MFM-223) of 97.5%.

For `CCCS(=O)(=O)Nc1ccc(F)c(C(=O)c2c[nH]c3ncc(-c4ccc(Cl)cc4)cc23)c1F` [Vemurafenib] (1 nM), the normalised response (BT-474) was 92.7%, the normalised response (BT-549) was 95% and the normalised response (CAL-120) was 96%. It also gave a normalised response (CAL-148) of 86%, a normalised response (CAL-51) of 99.9% and a normalised response (CAL-85-1) of 102%. The normalised response (DU-4475) was 96.1%, the normalised response (HCC1143) was 51.2% and the normalised response (HCC1599) was 93.7%. The normalised response (HCC1937) was 103%, the normalised response (HDQ-P1) was 94.2% and the normalised response (MCF-10A) was 75.1%. For the same compound, the normalised response (MDA-MB-231) was 82.9%, the normalised response (MDA-MB-453) was 101% and the normalised response (MDA-MB-468) was 60.1%. The normalised response (MFM-223) was 98.4%.
